Measurements from patent US20230346790A1, “PHARMACEUTICAL COMPOSITION FOR PREVENTION OR TREATMENT OF CANCERS ASSOCIATED WITH KRAS MUTATION” (WELLMARKER BIO CO., LTD., priority 2020, published 2023).
For part of these data: At least one compound was matched to its structure with a doubt left. Some of these results come from one statement about several compounds together.

Legend:
[1] = system: cetuximab-resistant cell line R2 (LIM1215, KRAS G13D, RON Δ155); assay: Cell death rate by trypan blue staining and cell counting, cetuximab-resistant line; type: cell-based; settings: cetuximab-resistant cell line R2, 1 µM, 48 hours
Method: (§1) The parent cell line LIM1215 and the cetuximab-resistant cell line R2 were counted, and each of them was seeded at 3×10^5 cells in a 60 mm dish. After 24 hours, treatment with 1 µM of each of the compounds of Example 1, Example 2, Example 3, Example 4, Example 5, positive control 1 (BMS-777607), positive control 2 (crizotinib), and positive control 3 (cabozantinib) was performed. After 48 hours had elapsed since the treatment, the cells were collected, resuspended in 1x phosphate buffered saline (PBS), and stained with a trypan blue solution. The stained cells were counted using a hemocytometer. Cell counting was performed in duplicate, and the mean and the standard deviation were calculated.

parent cell line LIM1215 = assay: Cell death rate by trypan blue staining and cell counting, cetuximab-sensitive parent line; type: cell-based; settings: parent cell line LIM1215, 1 µM, 48 hours
Method: as §1

Row | Compound | cell death rate [1] | cell death rate ([1]; Hydrochloride) | further results
1 | COc1cc2c(Oc3ccc(NC(=O)c4c5c(cn(-c6ccc(F)cc6)c4=O)CCO5)cc3F)ccnc2cc1OCCCN1CC(C#N)C1 [Example 5, N-(4-((7-(3-(3-Cyanoazetidine-1-yl)Propoxy)-6-Methoxyquinoline-4-yl)Oxy)-3-Fluorophenyl)-5-(4-Fluorophenyl)-6-Oxo-2,3,5,6-Tetrahydrofuro[3,2-c]Pyridine-7-Carboxamide] | remarkably excellent cell death rates | – | –
2 | CCOc1ccn(-c2ccc(F)cc2)c(=O)c1C(=O)Nc1ccc(Oc2ccnc3cc(-c4ccc(CN5CCOCC5)cn4)sc23)c(F)c1.Cl [Example 1, 4-Ethoxy-N-[3-Fluoro-4-({2-[5-(Morpholinomethyl)Pyridine-2-yl]Thieno[3,2-b]Pyridine-7-yl}Oxy)Phenyl]-1-(4-Fluorophenyl)-2-Oxo-1,2-Dihydropyridine-3-Carboxamide Hydrochloride] | – | remarkably excellent cell death rates | –
3 | COc1cc2nccc(Oc3ccc(NC(=O)C4(C(=O)Nc5ccc(F)cc5)CC4)cc3)c2cc1OC [positive control 3] | – | – | cell death rate (parent cell line LIM1215): cell death was not induced
4 | CCOc1ccn(-c2ccccc2)c(=O)c1C(=O)Nc1ccc(Oc2ccnc3cc(-c4ccc(CNCCOC)cn4)sc23)c(F)c1.Cl [Example 2, 4-Ethoxy-N-(3-Fluoro-4-{[2-(5-{[(2-Methoxyethyl)Amino]Methyl}Pyridine-2-yl)Thieno[3,2-b]Pyridine-7-yl]Oxy}Phenyl)-2-Oxo-1-Phenyl-1,2-Dihydropyridine-3-Carboxamide Hydrochloride] | – | remarkably excellent cell death rates | –
5 | COc1cc2c(Oc3ccc(NC(=O)c4c5c(cn(-c6ccc(F)cc6)c4=O)CCO5)cc3F)ccnc2cc1OCCN1CCOCC1 [Example 4, N-(3-Fluoro-4-((6-Methoxy-7-(2-Morpholinoethoxy)Quinolin-4-yl)Oxy)Phenyl)-5-(4-Fluorophenyl)-6-Oxo-2,3,5,6-Tetrahydrofuro[3,2-c]Pyridine-7-Carboxamide] | remarkably excellent cell death rates | – | –
6 | CCOc1ccn(-c2ccccc2)c(=O)c1C(=O)Nc1ccc(Oc2ccnc3cc(-c4ccc(CN5CCN(C)CC5)cn4)sc23)c(F)c1.Cl [Example 3, 4-Ethoxy-N-{3-Fluoro-4-[(2-{5-[(4-Methylpiperazin-1-yl)Methyl]Pyridin-2-yl}Thieno[3,2-b]Pyridin-7-yl)Oxy]Phenyl}-2-Oxo-1-Phenyl-1,2-Dihydropyridine-3-Carboxamide Hydrochloride] | – | remarkably excellent cell death rates | –
